The other results are listed elsewhere or left out. Measured potencies and affinities stand elsewhere. The source made no clear call on entries shown without one.
Experiments:
[1] = Drosophila SCA1 whole organism dose response for polyglutamine toxicity reduction (AID 1595); settings: Drosophila SCA1 polyglutamine model, at 1 µM, stronger effect = higher value
[2] = PubChem AID 1597; settings: Drosophila SCA1 polyglutamine model, at 1 µM, stronger effect = higher value

Compound	suppression of toxicity [1]	suppression of toxicity [2]
COc1c2occc2c(OC)c2c(=O)cc(C)oc12	0	3.57
CN1C2CCC1CC(OC(c1ccccc1)c1ccccc1)C2 (stereo not drawn)	1.43	7.14
c1ccc(CN(CC2=NCCN2)c2ccccc2)cc1	1.43	1.43
CC12CCC3c4ccc(OCc5ccccc5)cc4CCC3C1C[C@@H](O)[C@@H]2O (stereo partly drawn)	0	1.43

— PubChem BioAssay
